No constants are given. Whether binding was seen depends on the method and setting.
Biological target: PqiC^17-187, N-terminally truncated soluble construct of E. coli PqiC (E. coli) (UniProt P0AB10)
Assay: SEC; PqiC^17-187 on Superdex 200 26/600 in 20 mM Tris, 150 mM NaCl, pH 8.5; elution compared with Ribonuclease A (13.7 kDa); both purified

binding: no binding
B1: PqiC^17-187, N-terminally truncated soluble construct of E. coli PqiC (domain or fragment, UniProt P0AB10 17-187)
chain: SSGEINKNYYQLPVVQSGTQSTASQGNRLLWVEQVTVPDYLAGNGVVYQTSDVKYVIANNNLWASPLDQQLRNTLVANLSTQLPGWVVASQPLGSAQDTLNVTVTEFNGRYDGKVIVSGEWLLNHQGQLIKRPFRLEGVQTQDGYDEMVKVLAGVWSQEAASIAQEIKRLP

Source: publication PMC10897342, “An octameric PqiC toroid stabilises the outer-membrane interaction of the PqiABC transport system” (EMBO Reports, 2024)
